Source: the supplement of paper PMC10032668
The other results are listed elsewhere or left out. Only hits are listed; about a third recur on repeated control peptides.

The chains behind the UniProt entries cited, without tags or fusion partners.
CD2AP, Q9Y5K6, UniProt Q9Y5K6, whole entry: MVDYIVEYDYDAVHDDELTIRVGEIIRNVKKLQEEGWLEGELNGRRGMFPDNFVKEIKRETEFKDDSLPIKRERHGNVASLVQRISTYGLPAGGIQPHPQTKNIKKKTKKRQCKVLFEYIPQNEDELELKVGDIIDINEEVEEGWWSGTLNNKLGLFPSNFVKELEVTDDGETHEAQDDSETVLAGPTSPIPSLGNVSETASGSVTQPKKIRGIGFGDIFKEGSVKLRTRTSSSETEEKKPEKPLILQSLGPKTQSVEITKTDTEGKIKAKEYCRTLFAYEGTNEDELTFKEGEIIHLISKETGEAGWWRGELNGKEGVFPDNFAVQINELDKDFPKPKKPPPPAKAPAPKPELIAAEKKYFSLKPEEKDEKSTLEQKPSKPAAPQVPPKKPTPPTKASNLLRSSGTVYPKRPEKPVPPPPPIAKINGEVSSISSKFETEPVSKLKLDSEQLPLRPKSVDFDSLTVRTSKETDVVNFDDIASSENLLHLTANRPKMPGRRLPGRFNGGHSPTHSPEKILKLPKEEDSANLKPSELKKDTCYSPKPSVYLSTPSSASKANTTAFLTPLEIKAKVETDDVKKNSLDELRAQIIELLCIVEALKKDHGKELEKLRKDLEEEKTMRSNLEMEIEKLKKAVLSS
COX7A2, P14406, UniProt P14406, whole entry: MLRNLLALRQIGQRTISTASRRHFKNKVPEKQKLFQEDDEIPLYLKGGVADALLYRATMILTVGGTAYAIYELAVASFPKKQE
CUL1, Q13616, UniProt Q13616, whole entry: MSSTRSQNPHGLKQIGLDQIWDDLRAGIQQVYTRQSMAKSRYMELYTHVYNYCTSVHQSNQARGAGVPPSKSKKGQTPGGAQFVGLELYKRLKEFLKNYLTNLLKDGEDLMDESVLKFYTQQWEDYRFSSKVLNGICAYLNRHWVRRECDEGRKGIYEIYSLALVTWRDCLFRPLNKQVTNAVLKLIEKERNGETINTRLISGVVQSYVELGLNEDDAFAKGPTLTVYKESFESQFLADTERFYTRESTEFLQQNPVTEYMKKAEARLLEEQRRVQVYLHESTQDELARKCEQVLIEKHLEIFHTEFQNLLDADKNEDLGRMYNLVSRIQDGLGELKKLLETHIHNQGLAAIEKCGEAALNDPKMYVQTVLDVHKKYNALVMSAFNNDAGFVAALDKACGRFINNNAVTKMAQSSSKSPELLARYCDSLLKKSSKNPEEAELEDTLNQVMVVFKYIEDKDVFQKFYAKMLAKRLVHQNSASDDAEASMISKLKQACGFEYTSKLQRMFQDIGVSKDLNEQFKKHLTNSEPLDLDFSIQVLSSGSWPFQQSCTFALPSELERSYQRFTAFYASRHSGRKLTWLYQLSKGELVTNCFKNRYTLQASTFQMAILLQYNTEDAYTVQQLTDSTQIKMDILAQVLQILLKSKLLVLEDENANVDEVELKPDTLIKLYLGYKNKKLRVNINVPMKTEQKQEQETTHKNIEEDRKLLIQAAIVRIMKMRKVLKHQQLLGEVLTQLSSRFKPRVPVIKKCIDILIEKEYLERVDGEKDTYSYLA
HAX1, O00165, UniProt O00165, whole entry: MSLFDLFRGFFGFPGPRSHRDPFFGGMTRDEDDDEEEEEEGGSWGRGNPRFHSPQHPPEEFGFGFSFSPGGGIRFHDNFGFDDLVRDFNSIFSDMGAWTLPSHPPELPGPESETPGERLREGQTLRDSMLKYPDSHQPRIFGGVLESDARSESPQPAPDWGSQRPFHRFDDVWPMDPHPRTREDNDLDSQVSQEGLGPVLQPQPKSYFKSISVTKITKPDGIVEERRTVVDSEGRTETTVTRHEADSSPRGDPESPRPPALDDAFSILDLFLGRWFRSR
MPG, P29372, UniProt P29372, whole entry: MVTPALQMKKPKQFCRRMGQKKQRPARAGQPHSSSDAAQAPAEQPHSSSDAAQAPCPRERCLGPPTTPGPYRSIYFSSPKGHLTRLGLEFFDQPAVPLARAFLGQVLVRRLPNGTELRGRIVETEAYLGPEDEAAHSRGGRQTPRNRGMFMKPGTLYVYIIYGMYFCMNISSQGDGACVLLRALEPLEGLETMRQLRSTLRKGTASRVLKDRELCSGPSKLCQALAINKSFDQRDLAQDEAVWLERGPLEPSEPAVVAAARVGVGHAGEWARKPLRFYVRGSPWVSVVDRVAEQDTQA
NCAPD2, Q15021, UniProt Q15021, whole entry: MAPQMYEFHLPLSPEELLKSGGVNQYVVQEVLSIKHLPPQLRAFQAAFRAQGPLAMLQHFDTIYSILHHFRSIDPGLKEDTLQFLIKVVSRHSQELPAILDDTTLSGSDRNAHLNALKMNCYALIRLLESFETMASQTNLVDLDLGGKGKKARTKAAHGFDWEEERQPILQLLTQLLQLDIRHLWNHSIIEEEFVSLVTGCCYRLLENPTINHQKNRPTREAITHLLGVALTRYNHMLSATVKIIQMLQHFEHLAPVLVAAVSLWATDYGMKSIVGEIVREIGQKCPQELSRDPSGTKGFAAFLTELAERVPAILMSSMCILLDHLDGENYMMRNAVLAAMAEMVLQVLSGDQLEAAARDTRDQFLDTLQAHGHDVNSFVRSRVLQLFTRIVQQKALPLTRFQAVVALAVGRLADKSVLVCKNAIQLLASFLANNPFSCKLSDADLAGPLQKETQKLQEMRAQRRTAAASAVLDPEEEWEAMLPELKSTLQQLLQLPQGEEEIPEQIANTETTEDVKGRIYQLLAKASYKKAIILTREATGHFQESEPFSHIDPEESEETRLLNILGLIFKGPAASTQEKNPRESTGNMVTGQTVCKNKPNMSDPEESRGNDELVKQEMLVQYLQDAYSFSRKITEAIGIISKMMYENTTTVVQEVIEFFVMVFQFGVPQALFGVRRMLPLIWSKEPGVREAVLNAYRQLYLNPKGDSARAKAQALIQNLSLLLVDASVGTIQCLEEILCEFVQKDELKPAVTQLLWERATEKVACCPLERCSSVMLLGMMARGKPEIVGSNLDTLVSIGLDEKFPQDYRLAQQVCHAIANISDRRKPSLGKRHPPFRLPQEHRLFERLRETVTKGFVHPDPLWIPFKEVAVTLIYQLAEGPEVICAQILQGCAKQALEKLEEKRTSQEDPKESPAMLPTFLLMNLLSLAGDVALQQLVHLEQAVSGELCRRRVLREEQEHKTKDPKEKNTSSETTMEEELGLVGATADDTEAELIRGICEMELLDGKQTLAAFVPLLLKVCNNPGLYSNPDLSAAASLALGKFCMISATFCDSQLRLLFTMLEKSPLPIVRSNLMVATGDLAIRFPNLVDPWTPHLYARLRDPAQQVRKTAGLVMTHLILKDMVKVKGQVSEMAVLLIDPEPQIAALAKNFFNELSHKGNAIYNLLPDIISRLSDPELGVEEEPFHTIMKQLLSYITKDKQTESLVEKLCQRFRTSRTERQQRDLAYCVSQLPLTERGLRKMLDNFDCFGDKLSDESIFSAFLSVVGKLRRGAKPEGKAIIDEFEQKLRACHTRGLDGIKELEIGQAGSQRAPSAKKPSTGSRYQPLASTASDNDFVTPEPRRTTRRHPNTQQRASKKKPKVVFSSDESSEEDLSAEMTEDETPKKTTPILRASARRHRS
SNRPD3, P62318, UniProt P62318, whole entry: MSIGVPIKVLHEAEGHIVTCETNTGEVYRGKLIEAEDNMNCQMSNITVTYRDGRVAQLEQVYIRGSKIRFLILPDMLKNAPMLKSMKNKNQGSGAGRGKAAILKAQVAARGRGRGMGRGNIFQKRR
TUBG1, P23258, UniProt P23258, whole entry: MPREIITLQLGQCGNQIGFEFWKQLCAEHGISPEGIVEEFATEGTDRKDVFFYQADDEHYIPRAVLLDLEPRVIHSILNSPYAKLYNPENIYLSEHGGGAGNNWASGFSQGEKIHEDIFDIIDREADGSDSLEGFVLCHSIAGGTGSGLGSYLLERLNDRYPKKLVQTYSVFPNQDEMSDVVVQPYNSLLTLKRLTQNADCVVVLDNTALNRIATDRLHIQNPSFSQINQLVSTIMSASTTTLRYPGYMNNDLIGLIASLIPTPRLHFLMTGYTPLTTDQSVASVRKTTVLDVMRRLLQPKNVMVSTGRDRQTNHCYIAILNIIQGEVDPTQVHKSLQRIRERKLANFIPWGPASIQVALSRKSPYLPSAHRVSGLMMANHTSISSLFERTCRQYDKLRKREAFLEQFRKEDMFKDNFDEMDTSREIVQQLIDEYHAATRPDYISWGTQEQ
XPO1, O14980, UniProt O14980, whole entry: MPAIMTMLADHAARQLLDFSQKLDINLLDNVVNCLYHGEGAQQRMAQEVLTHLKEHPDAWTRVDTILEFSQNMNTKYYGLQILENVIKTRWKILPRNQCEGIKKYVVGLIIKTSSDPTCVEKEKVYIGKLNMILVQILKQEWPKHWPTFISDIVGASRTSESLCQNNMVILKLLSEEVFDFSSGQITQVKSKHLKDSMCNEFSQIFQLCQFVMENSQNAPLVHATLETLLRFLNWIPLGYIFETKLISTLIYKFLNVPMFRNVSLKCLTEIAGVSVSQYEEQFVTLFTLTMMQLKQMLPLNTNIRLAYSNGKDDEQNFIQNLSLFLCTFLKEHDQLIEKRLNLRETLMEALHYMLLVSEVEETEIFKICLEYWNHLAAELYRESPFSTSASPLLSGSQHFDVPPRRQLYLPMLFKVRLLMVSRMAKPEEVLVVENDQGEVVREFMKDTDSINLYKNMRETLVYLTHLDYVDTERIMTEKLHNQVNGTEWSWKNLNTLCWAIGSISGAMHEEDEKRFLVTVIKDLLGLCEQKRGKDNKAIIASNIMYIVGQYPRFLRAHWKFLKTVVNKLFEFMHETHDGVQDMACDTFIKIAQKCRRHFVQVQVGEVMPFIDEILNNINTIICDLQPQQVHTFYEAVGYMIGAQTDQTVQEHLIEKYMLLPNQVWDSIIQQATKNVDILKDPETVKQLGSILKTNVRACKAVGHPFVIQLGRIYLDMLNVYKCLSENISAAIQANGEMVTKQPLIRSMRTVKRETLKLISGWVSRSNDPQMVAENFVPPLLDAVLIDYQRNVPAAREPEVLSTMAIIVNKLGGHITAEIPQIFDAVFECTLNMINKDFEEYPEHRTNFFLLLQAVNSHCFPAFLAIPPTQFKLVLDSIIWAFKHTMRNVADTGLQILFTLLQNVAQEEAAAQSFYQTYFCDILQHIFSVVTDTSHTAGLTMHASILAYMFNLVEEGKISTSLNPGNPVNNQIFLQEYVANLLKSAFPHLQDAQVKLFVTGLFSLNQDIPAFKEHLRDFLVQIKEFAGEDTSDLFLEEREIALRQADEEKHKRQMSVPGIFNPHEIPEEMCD
GTF2F2, P13984, UniProt P13984, whole entry: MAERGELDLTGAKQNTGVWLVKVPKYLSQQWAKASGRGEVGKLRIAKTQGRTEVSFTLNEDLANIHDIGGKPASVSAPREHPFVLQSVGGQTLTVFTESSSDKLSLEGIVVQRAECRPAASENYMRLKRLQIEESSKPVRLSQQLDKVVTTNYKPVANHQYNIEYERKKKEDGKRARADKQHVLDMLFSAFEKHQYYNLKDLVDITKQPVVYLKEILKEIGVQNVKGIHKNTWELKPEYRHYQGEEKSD
H2AFY2, Q9P0M6, UniProt Q9P0M6, whole entry: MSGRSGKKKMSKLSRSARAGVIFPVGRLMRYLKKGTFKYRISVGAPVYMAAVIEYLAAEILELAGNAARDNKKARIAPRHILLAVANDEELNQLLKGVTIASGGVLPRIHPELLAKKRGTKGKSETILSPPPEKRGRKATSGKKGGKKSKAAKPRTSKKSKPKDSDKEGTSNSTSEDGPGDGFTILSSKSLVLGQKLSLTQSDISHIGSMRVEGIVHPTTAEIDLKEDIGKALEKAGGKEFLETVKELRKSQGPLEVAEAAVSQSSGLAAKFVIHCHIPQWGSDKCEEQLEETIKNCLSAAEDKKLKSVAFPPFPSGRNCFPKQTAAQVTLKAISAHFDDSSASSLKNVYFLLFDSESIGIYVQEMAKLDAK
HDAC2, Q92769, UniProt Q92769, whole entry: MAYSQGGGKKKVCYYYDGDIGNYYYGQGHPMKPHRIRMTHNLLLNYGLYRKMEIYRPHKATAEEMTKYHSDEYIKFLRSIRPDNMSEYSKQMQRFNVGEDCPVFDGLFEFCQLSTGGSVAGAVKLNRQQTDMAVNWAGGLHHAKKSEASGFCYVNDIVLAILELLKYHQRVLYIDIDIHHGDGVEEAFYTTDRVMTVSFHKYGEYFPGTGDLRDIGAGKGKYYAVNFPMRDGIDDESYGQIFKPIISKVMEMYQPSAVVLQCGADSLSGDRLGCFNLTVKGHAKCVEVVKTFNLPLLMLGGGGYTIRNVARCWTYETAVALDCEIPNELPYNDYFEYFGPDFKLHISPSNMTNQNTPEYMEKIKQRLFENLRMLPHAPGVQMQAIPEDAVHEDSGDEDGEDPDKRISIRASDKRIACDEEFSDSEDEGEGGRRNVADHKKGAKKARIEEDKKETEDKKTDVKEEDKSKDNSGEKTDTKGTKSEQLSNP
NDUFA13, Q9P0J0, UniProt Q9P0J0, whole entry: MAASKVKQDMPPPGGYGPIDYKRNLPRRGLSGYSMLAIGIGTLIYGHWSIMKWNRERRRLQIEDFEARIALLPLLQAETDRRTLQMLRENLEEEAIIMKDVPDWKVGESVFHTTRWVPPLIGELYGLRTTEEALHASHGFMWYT

Columns and labels:
Test in all cases: PRISMA enrichment of interactor (LFQ) in peptide spot vs all other peptide spots (log2 fold change); higher = stronger / more specific binding of the interactor to the peptide
ACOT9, Q9Y305 = molecular target: ACOT9, Q9Y305
Protocol: (§1)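 PRISMA: 15-aa overlapping tiles (offset 8 aa) of 60 microproteins, plus SOS1/GLUT1 control peptides, were spot-synthesized on cellulose membranes in triplicate. Membranes were incubated with benzonase-treated HEK293T lysate, and bound proteins were identified by LC-MS/MS with LFQ. Enrichment is the log2 fold change of each protein in one spot versus all other spots. Only interactors passing the significance cutoff are listed.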

BIN1, O00499 = molecular target: BIN1, O00499
Protocol: as §1

BRAT1, Q6PJG6 = molecular target: BRAT1, Q6PJG6
Protocol: as §1

BZW1, Q7L1Q6 = molecular target: BZW1, Q7L1Q6
Protocol: as §1

C4A, P0C0L4 = molecular target: C4A, P0C0L4
Protocol: as §1

CBX4, O00257 = molecular target: CBX4, O00257
Protocol: as §1

CC2D1A, Q6P1N0 = molecular target: CC2D1A, Q6P1N0
Protocol: as §1

CD2AP, Q9Y5K6 = molecular target: CD2AP, Q9Y5K6
Protocol: as §1

CHAMP1, Q96JM3 = molecular target: CHAMP1, Q96JM3
Protocol: as §1

CHD1, O14646 = molecular target: CHD1, O14646
Protocol: as §1

CHMP1A, Q9HD42 = molecular target: CHMP1A, Q9HD42
Protocol: as §1

COX7A2, P14406 = molecular target: COX7A2, P14406
Protocol: as §1

CPSF2, Q9P2I0 = molecular target: CPSF2, Q9P2I0
Protocol: as §1

CUL1, Q13616 = molecular target: CUL1, Q13616
Protocol: as §1

EXOC5, O00471 = molecular target: EXOC5, O00471
Protocol: as §1

FKBP9, O95302 = molecular target: FKBP9, O95302
Protocol: as §1

FYTTD1, Q96QD9 = molecular target: FYTTD1, Q96QD9
Protocol: as §1

GATA6, Q92908 = molecular target: GATA6, Q92908
Protocol: as §1

GRB2, P62993 = molecular target: GRB2, P62993
Protocol: as §1

HAX1, O00165 = molecular target: HAX1, O00165
Protocol: as §1

HIRIP3, Q9BW71 = molecular target: HIRIP3, Q9BW71
Protocol: as §1

KLF16, Q9BXK1 = molecular target: KLF16, Q9BXK1
Protocol: as §1

LYPLAL1, Q5VWZ2 = molecular target: LYPLAL1, Q5VWZ2
Protocol: as §1

MPG, P29372 = molecular target: MPG, P29372
Protocol: as §1

MRPL43, Q8N983 = molecular target: MRPL43, Q8N983
Protocol: as §1

MRPS5, P82675 = molecular target: MRPS5, P82675
Protocol: as §1

NCAPD2, Q15021 = molecular target: NCAPD2, Q15021
Protocol: as §1

POLR2J3, Q9H1A7 = molecular target: POLR2J3, Q9H1A7
Protocol: as §1

PTP4A2, Q12974 = molecular target: PTP4A2, Q12974
Protocol: as §1

RBM38, Q9H0Z9 = molecular target: RBM38, Q9H0Z9
Protocol: as §1

RIF1, Q5UIP0 = molecular target: RIF1, Q5UIP0
Protocol: as §1

RNASEH1, O60930 = molecular target: RNASEH1, O60930
Protocol: as §1

SNRPD3, P62318 = molecular target: SNRPD3, P62318
Protocol: as §1

SUPT4H1, P63272 = molecular target: SUPT4H1, P63272
Protocol: as §1

TMEM177, Q53S58 = molecular target: TMEM177, Q53S58
Protocol: as §1

TUBG1, P23258 = molecular target: TUBG1, P23258
Protocol: as §1

TXLNG, Q9NUQ3 = molecular target: TXLNG, Q9NUQ3
Protocol: as §1

UBA1, P22314 = molecular target: UBA1, P22314
Protocol: as §1

XPO1, O14980 = molecular target: XPO1, O14980
Protocol: as §1

XPO4, Q9C0E2 = molecular target: XPO4, Q9C0E2
Protocol: as §1

ZC3H11A, O75152 = molecular target: ZC3H11A, O75152
Protocol: as §1

ACOT7, O00154 = molecular target: ACOT7, O00154
Protocol: as §1

ASMTL, O95671 = molecular target: ASMTL, O95671
Protocol: as §1

CCT7, Q99832 = molecular target: CCT7, Q99832
Protocol: as §1

COPB1, P53618 = molecular target: COPB1, P53618
Protocol: as §1

GNL3L, Q9NVN8 = molecular target: GNL3L, Q9NVN8
Protocol: as §1

GTF2F2, P13984 = molecular target: GTF2F2, P13984
Protocol: as §1

H2AFY2, Q9P0M6 = molecular target: H2AFY2, Q9P0M6
Protocol: as §1

HDAC2, Q92769 = molecular target: HDAC2, Q92769
Protocol: as §1

HLTF, Q14527 = molecular target: HLTF, Q14527
Protocol: as §1

HSD17B11, Q8NBQ5 = molecular target: HSD17B11, Q8NBQ5
Protocol: as §1

MRPS15, P82914 = molecular target: MRPS15, P82914
Protocol: as §1

MYCBP2, O75592 = molecular target: MYCBP2, O75592
Protocol: as §1

NDUFA13, Q9P0J0 = molecular target: NDUFA13, Q9P0J0
Protocol: as §1

NRDE2, Q9H7Z3 = molecular target: NRDE2, Q9H7Z3
Protocol: as §1

PDIA4, P13667 = molecular target: PDIA4, P13667
Protocol: as §1

PSMB2, P49721 = molecular target: PSMB2, P49721
Protocol: as §1

EVPVPAPVAPARRP [SOS1_MUT_1]
PRISMA enrichment of interactor (log2) (ACOT9, Q9Y305): 6.1
PRISMA enrichment of interactor (log2) (BIN1, O00499): 3.6
PRISMA enrichment of interactor (log2) (BRAT1, Q6PJG6): 4.35
PRISMA enrichment of interactor (log2) (BZW1, Q7L1Q6): 5.17
PRISMA enrichment of interactor (log2) (C4A, P0C0L4): 3.67
PRISMA enrichment of interactor (log2) (CBX4, O00257): 3.86
PRISMA enrichment of interactor (log2) (CC2D1A, Q6P1N0): 8.88
PRISMA enrichment of interactor (log2) (CD2AP, Q9Y5K6): 6.03
PRISMA enrichment of interactor (log2) (CHAMP1, Q96JM3): 4.17
PRISMA enrichment of interactor (log2) (CHD1, O14646): 5.12
PRISMA enrichment of interactor (log2) (CHMP1A, Q9HD42): 4.56
PRISMA enrichment of interactor (log2) (COX7A2, P14406): 5.97
PRISMA enrichment of interactor (log2) (CPSF2, Q9P2I0): 6.06
PRISMA enrichment of interactor (log2) (CUL1, Q13616): 5.31
PRISMA enrichment of interactor (log2) (EXOC5, O00471): 5.18
PRISMA enrichment of interactor (log2) (FKBP9, O95302): 5.79
PRISMA enrichment of interactor (log2) (FYTTD1, Q96QD9): 4.06
PRISMA enrichment of interactor (log2) (GATA6, Q92908): 7.9
PRISMA enrichment of interactor (log2) (GRB2, P62993): 5.23
PRISMA enrichment of interactor (log2) (HAX1, O00165): 5.67
PRISMA enrichment of interactor (log2) (HIRIP3, Q9BW71): 4.01
PRISMA enrichment of interactor (log2) (KLF16, Q9BXK1): 4.13
PRISMA enrichment of interactor (log2) (LYPLAL1, Q5VWZ2): 5.22
PRISMA enrichment of interactor (log2) (MPG, P29372): 6.94
PRISMA enrichment of interactor (log2) (MRPL43, Q8N983): 4.46
PRISMA enrichment of interactor (log2) (MRPS5, P82675): 5.5
PRISMA enrichment of interactor (log2) (NCAPD2, Q15021): 4.65
PRISMA enrichment of interactor (log2) (POLR2J3, Q9H1A7): 6.08
PRISMA enrichment of interactor (log2) (PTP4A2, Q12974): 5.52
PRISMA enrichment of interactor (log2) (RBM38, Q9H0Z9): 6.61
PRISMA enrichment of interactor (log2) (RIF1, Q5UIP0): 5.08
PRISMA enrichment of interactor (log2) (RNASEH1, O60930): 3.78
PRISMA enrichment of interactor (log2) (SNRPD3, P62318): 5.37
PRISMA enrichment of interactor (log2) (SUPT4H1, P63272): 5.41
PRISMA enrichment of interactor (log2) (TMEM177, Q53S58): 9.46
PRISMA enrichment of interactor (log2) (TUBG1, P23258): 6.08
PRISMA enrichment of interactor (log2) (TXLNG, Q9NUQ3): 5.4
PRISMA enrichment of interactor (log2) (UBA1, P22314): 5.07
PRISMA enrichment of interactor (log2) (XPO1, O14980): 4.85
PRISMA enrichment of interactor (log2) (XPO4, Q9C0E2): 3.98
PRISMA enrichment of interactor (log2) (ZC3H11A, O75152): 4.75

ERRAMGILTTSVRKK [RP11-12K22.1]
PRISMA enrichment of interactor (log2) (ACOT7, O00154): 4.12
PRISMA enrichment of interactor (log2) (ASMTL, O95671): 5.01
PRISMA enrichment of interactor (log2) (CCT7, Q99832): 5.61
PRISMA enrichment of interactor (log2) (COPB1, P53618): 5.33
PRISMA enrichment of interactor (log2) (GNL3L, Q9NVN8): 7.01
PRISMA enrichment of interactor (log2) (GTF2F2, P13984): 5.81
PRISMA enrichment of interactor (log2) (H2AFY2, Q9P0M6): 4.08
PRISMA enrichment of interactor (log2) (HDAC2, Q92769): 4.1
PRISMA enrichment of interactor (log2) (HLTF, Q14527): 7.12
PRISMA enrichment of interactor (log2) (HSD17B11, Q8NBQ5): 4.13
PRISMA enrichment of interactor (log2) (MRPS15, P82914): 5.02
PRISMA enrichment of interactor (log2) (MYCBP2, O75592): 4.41
PRISMA enrichment of interactor (log2) (NDUFA13, Q9P0J0): 4.86
PRISMA enrichment of interactor (log2) (NRDE2, Q9H7Z3): 3.65
PRISMA enrichment of interactor (log2) (PDIA4, P13667): 5.18
PRISMA enrichment of interactor (log2) (PSMB2, P49721): 6.78
